Whole data set: some 1,900 compounds, median “excess over highest single agent (ExcessHSA) synergy score, 6x6 matrix” near -83, cut for the lowest 2% near -370. Some of the results follow.
These compounds were tested on NCI-H446 (assay: excess over highest single agent (ExcessHSA) synergy score, 6x6 matrix; higher = less synergy (more negative = stronger synergy)). Conditions: 72 h; CellTiter-Glo viability.

| SMILES | excess over highest single agent |
| --- | --- |
| N=C(N)c1ccc(OCCCCCOc2ccc(C(=N)N)cc2)cc1 + Cc1sc2c(c1C)C(c1ccc(Cl)cc1)=N[C@@H](CC(=O)OC(C)(C)C)c1nnc(C)n1-2 [NCGC00250412-19] | -62.8 |
| CCC(=O)N1CCN(c2ccc(-n3c(=O)ccc4cnc5ccc(-c6cnc7ccccc7c6)cc5c43)cc2C(F)(F)F)CC1 + Cc1sc2c(c1C)C(c1ccc(Cl)cc1)=N[C@@H](CC(=O)OC(C)(C)C)c1nnc(C)n1-2 [NCGC00250412-19] | -246 |
| CO/N=C(\C(=O)N[C@@H]1C(=O)N2C(C(=O)OCOC(=O)C(C)(C)C)=C(/C=C\c3scnc3C)CS[C@H]12)c1csc(N)n1 + Cc1sc2c(c1C)C(c1ccc(Cl)cc1)=N[C@@H](CC(=O)OC(C)(C)C)c1nnc(C)n1-2 [NCGC00250412-19] | -94 |
| c1ccc2c(Cc3c[nH]c4ccccc34)c[nH]c2c1 + Cc1sc2c(c1C)C(c1ccc(Cl)cc1)=N[C@@H](CC(=O)OC(C)(C)C)c1nnc(C)n1-2 [NCGC00250412-19] | -83.3 |
| O[C@@H](COc1cccc2ncccc12)CN1CCN([C@@H]2c3ccccc3[C@@H]3[C@H](c4ccccc42)C3(F)F)CC1 + Cc1sc2c(c1C)C(c1ccc(Cl)cc1)=N[C@@H](CC(=O)OC(C)(C)C)c1nnc(C)n1-2 [NCGC00250412-19] | -41.1 |
| Cn1cnc(-c2cc3nccc(Oc4ccc(NC(=S)NC(=O)Cc5ccccc5)cc4F)c3s2)c1 + Cc1sc2c(c1C)C(c1ccc(Cl)cc1)=N[C@@H](CC(=O)OC(C)(C)C)c1nnc(C)n1-2 [NCGC00250412-19] | -36.3 |
| CCCc1cc(=O)[nH]c(=S)[nH]1 + Cc1sc2c(c1C)C(c1ccc(Cl)cc1)=N[C@@H](CC(=O)OC(C)(C)C)c1nnc(C)n1-2 [NCGC00250412-19] | 116 |
| COc1ccc(CCN(C)CCCC(C#N)(c2ccc(OC)c(OC)c2)C(C)C)cc1OC (configuration not stated) + Cc1sc2c(c1C)C(c1ccc(Cl)cc1)=N[C@@H](CC(=O)OC(C)(C)C)c1nnc(C)n1-2 [NCGC00250412-19] | -121 |
| C=C1C(=O)O[C@@H]2/C=C(\C)CC/C=C(\C)CC[C@@H]12 + Cc1sc2c(c1C)C(c1ccc(Cl)cc1)=N[C@@H](CC(=O)OC(C)(C)C)c1nnc(C)n1-2 [NCGC00250412-19] | -251 |
| CCOC(=O)C1=C[C@@H](OC(CC)CC)[C@H](NC(C)=O)[C@@H](N)C1 + Cc1sc2c(c1C)C(c1ccc(Cl)cc1)=N[C@@H](CC(=O)OC(C)(C)C)c1nnc(C)n1-2 [NCGC00250412-19] | -27.5 |
| C[C@]12CCC(=O)C=C1CC[C@@H]1[C@@H]2[C@@H](O)C[C@@]2(C)[C@H]1CC[C@]2(O)C(=O)CO + Cc1sc2c(c1C)C(c1ccc(Cl)cc1)=N[C@@H](CC(=O)OC(C)(C)C)c1nnc(C)n1-2 [NCGC00250412-19] | -51.3 |
| O=C(CCc1ccc(O)cc1)c1c(O)cc(O)cc1O[C@@H]1O[C@H](CO)[C@@H](O)[C@H](O)[C@H]1O + Cc1sc2c(c1C)C(c1ccc(Cl)cc1)=N[C@@H](CC(=O)OC(C)(C)C)c1nnc(C)n1-2 [NCGC00250412-19] | -20.4 |
| Oc1ncnc2[nH]ncc12 + Cc1sc2c(c1C)C(c1ccc(Cl)cc1)=N[C@@H](CC(=O)OC(C)(C)C)c1nnc(C)n1-2 [NCGC00250412-19] | -18.8 |
| COc1cccc2c1[C@]13CCN(CC4CC4)[C@H](C2)[C@]1(OC)CCC(=O)C3 + Cc1sc2c(c1C)C(c1ccc(Cl)cc1)=N[C@@H](CC(=O)OC(C)(C)C)c1nnc(C)n1-2 [NCGC00250412-19] | -55 |
| COc1cc2c(N3CCN(C(=O)Nc4ccc(OC(C)C)cc4)CC3)ncnc2cc1OCCCN1CCCCC1 + Cc1sc2c(c1C)C(c1ccc(Cl)cc1)=N[C@@H](CC(=O)OC(C)(C)C)c1nnc(C)n1-2 [NCGC00250412-19] | 20.7 |
| Cc1cc(O)c2c(c1)C(=O)c1cccc(O)c1C2=O + Cc1sc2c(c1C)C(c1ccc(Cl)cc1)=N[C@@H](CC(=O)OC(C)(C)C)c1nnc(C)n1-2 [NCGC00250412-19] | -314 |
| CC(C(=O)O)c1ccc(-c2ccccc2)c(F)c1 (configuration not stated) + Cc1sc2c(c1C)C(c1ccc(Cl)cc1)=N[C@@H](CC(=O)OC(C)(C)C)c1nnc(C)n1-2 [NCGC00250412-19] | 5.19 |
| C[C@H]1O[C@@H](O[C@H]2[C@@H](O)C[C@H](O[C@H]3[C@@H](O)C[C@H](O[C@H]4CC[C@@]5(C)[C@H](CC[C@@H]6[C@@H]5C[C@@H](O)[C@]5(C)[C@@H](C7=CC(=O)OC7)CC[C@]65O)C4)O[C@@H]3C)O[C@@H]2C)C[C@H](O)[C@@H]1O + Cc1sc2c(c1C)C(c1ccc(Cl)cc1)=N[C@@H](CC(=O)OC(C)(C)C)c1nnc(C)n1-2 [NCGC00250412-19] | -83.2 |
| C=CCc1cccc(/C=N/NC(=O)CN2CCN(Cc3ccccc3)CC2)c1O + Cc1sc2c(c1C)C(c1ccc(Cl)cc1)=N[C@@H](CC(=O)OC(C)(C)C)c1nnc(C)n1-2 [NCGC00250412-19] | 0.41 |

Another view of some results above.
Cn1cnc(-c2cc3nccc(Oc4ccc(NC(=S)NC(=O)Cc5ccccc5)cc4F)c3s2)c1 + Cc1sc2c(c1C)C(c1ccc(Cl)cc1)=N[C@@H](CC(=O)OC(C)(C)C)c1nnc(C)n1-2 [NCGC00250412-19]
  excess over highest single agent: -36.3
Oc1ncnc2[nH]ncc12 + Cc1sc2c(c1C)C(c1ccc(Cl)cc1)=N[C@@H](CC(=O)OC(C)(C)C)c1nnc(C)n1-2 [NCGC00250412-19]
  excess over highest single agent: -18.8

Additional entries follow:

| SMILES | excess over highest single agent |
| --- | --- |
| O=C(Nc1cccc(C(F)(F)F)c1)Nc1cc(S(=O)(=O)NC2CC2)ccc1-c1ccsc1 + Cc1sc2c(c1C)C(c1ccc(Cl)cc1)=N[C@@H](CC(=O)OC(C)(C)C)c1nnc(C)n1-2 [NCGC00250412-19] | -216 |
| O=C1c2c(O)cccc2C([C@@H]2O[C@H](CO)[C@@H](O)[C@H](O)[C@H]2O)c2cc(CO)cc(O)c21 (some centres not stated) + Cc1sc2c(c1C)C(c1ccc(Cl)cc1)=N[C@@H](CC(=O)OC(C)(C)C)c1nnc(C)n1-2 [NCGC00250412-19] | -67.8 |
| NC(=O)c1ccc(-c2nc(-c3ccc4c(c3)OCCO4)c(-c3ccccn3)[nH]2)cc1 + Cc1sc2c(c1C)C(c1ccc(Cl)cc1)=N[C@@H](CC(=O)OC(C)(C)C)c1nnc(C)n1-2 [NCGC00250412-19] | 109 |
| Nc1nc2[nH]cnc2c(=S)[nH]1 + Cc1sc2c(c1C)C(c1ccc(Cl)cc1)=N[C@@H](CC(=O)OC(C)(C)C)c1nnc(C)n1-2 [NCGC00250412-19] | -51.5 |
| Cc1ccccc1C(=O)Nc1ccc(C(=O)N2CCCC(O)c3cc(Cl)ccc32)c(C)c1 (configuration not stated) + Cc1sc2c(c1C)C(c1ccc(Cl)cc1)=N[C@@H](CC(=O)OC(C)(C)C)c1nnc(C)n1-2 [NCGC00250412-19] | -36.8 |
| CN(C)C(=O)C(CCN1CCC(O)(c2ccc(Cl)cc2)CC1)(c1ccccc1)c1ccccc1 + Cc1sc2c(c1C)C(c1ccc(Cl)cc1)=N[C@@H](CC(=O)OC(C)(C)C)c1nnc(C)n1-2 [NCGC00250412-19] | -136 |
| COc1cc(C[C@@H](CO)[C@H](CO)Cc2ccc(O)c(OC)c2)ccc1O + Cc1sc2c(c1C)C(c1ccc(Cl)cc1)=N[C@@H](CC(=O)OC(C)(C)C)c1nnc(C)n1-2 [NCGC00250412-19] | -58.8 |
| COc1cc(C(=O)NC2CCN(C)CC2)ccc1Nc1ncc2c(n1)N(C1CCCC1)CCC(=O)N2C(C)C + Cc1sc2c(c1C)C(c1ccc(Cl)cc1)=N[C@@H](CC(=O)OC(C)(C)C)c1nnc(C)n1-2 [NCGC00250412-19] | -126 |
| CCN(CC)CCNC(=O)c1c(C)[nH]c(/C=C2\C(=O)Nc3ccc(F)cc32)c1C + Cc1sc2c(c1C)C(c1ccc(Cl)cc1)=N[C@@H](CC(=O)OC(C)(C)C)c1nnc(C)n1-2 [NCGC00250412-19] | -148 |
| COc1ccc(/C=C/C(=O)Nc2ccccc2C(=O)O)cc1OC + Cc1sc2c(c1C)C(c1ccc(Cl)cc1)=N[C@@H](CC(=O)OC(C)(C)C)c1nnc(C)n1-2 [NCGC00250412-19] | -177 |
| Oc1ccc(/C=C/c2cc(O)cc(O)c2)cc1 + Cc1sc2c(c1C)C(c1ccc(Cl)cc1)=N[C@@H](CC(=O)OC(C)(C)C)c1nnc(C)n1-2 [NCGC00250412-19] | -81.7 |
| C=C1C(=O)[C@]23[C@H](O)[C@H]1CC[C@H]2[C@@]12CO[C@]3(O)[C@@H](O)[C@@H]1C(C)(C)CC[C@@H]2O + Cc1sc2c(c1C)C(c1ccc(Cl)cc1)=N[C@@H](CC(=O)OC(C)(C)C)c1nnc(C)n1-2 [NCGC00250412-19] | -378 |
| NC(=O)c1ccc2[nH]ccc2c1 + Cc1sc2c(c1C)C(c1ccc(Cl)cc1)=N[C@@H](CC(=O)OC(C)(C)C)c1nnc(C)n1-2 [NCGC00250412-19] | -135 |
| CCOc1cc2ncc(C#N)c(Nc3ccc(F)c(Cl)c3)c2cc1NC(=O)/C=C/CN(C)C + Cc1sc2c(c1C)C(c1ccc(Cl)cc1)=N[C@@H](CC(=O)OC(C)(C)C)c1nnc(C)n1-2 [NCGC00250412-19] | -127 |
| CC[C@]1(O)C[C@H]2CN(CCc3c([nH]c4ccccc34)[C@@](C(=O)OC)(c3cc4c(cc3OC)N(C=O)[C@H]3[C@@](O)(C(=O)OC)[C@H](OC(C)=O)[C@]5(CC)C=CCN6CC[C@]43[C@@H]65)C2)C1 + Cc1sc2c(c1C)C(c1ccc(Cl)cc1)=N[C@@H](CC(=O)OC(C)(C)C)c1nnc(C)n1-2 [NCGC00250412-19] | -144 |
| CCOc1ccc(Nc2nc(-c3c(C)nc4ccccn34)cs2)cc1 + Cc1sc2c(c1C)C(c1ccc(Cl)cc1)=N[C@@H](CC(=O)OC(C)(C)C)c1nnc(C)n1-2 [NCGC00250412-19] | -146 |
| Cc1c[nH]c(C=C2C(=O)Nc3ccccc32)c1CCC(=O)O + Cc1sc2c(c1C)C(c1ccc(Cl)cc1)=N[C@@H](CC(=O)OC(C)(C)C)c1nnc(C)n1-2 [NCGC00250412-19] | 66.3 |
| CN[C@@H](C)C(=O)N[C@H]1CN(C(=O)CC(C)C)CC[C@H]2CC[C@@H](C(=O)NC(c3ccccc3)c3ccccc3)N2C1=O + Cc1sc2c(c1C)C(c1ccc(Cl)cc1)=N[C@@H](CC(=O)OC(C)(C)C)c1nnc(C)n1-2 [NCGC00250412-19] | -114 |

— the supplement of paper PMC10077471
